Reference: patent publication US20030045691A1
Numbering of substitutions follows the chain as printed. These are yes or no findings as the source states them, for the method shown. Some binding calls cover weakened binding; strength is not graded here.

The chains behind the UniProt entries cited, without tags or fusion partners. Where a name states a change or a piece, a line headed by the entry shows the natural chain unless it says otherwise.
UniProt Q10589: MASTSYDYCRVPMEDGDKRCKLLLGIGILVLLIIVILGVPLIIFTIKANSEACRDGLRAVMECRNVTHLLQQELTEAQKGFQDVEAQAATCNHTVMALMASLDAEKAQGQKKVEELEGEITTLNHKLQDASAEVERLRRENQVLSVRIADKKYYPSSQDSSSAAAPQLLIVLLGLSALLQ

Columns and labels:
[1] = target: HM 1.24 antigen polypeptide (human) (UniProt Q10589); experiment: flow cytometry on KPMM2 cells
[2] = target: HM 1.24 antigen polypeptide (human) (UniProt Q10589); experiment: Cell-ELISA on fixed WISH cells
[3] = target: HM 1.24 antigen polypeptide (human) (UniProt Q10589); experiment: flow cytometry on KPMM2 cells, COS-7 culture supernatant
[4] = target: HM 1.24 antigen polypeptide (human) (UniProt Q10589); experiment: Cell-ELISA on fixed WISH cells, COS-7 supernatant concentrate
[5] = target: HM 1.24 antigen polypeptide (human) (UniProt Q10589); experiment: competition Cell-ELISA on fixed WISH cells; competitor biotinylated mouse anti-HM 1.24 antibody
[6] = target: HM 1.24 antigen polypeptide (human) (UniProt Q10589); experiment: Cell-ELISA on fixed WISH cells, direct binding and competition with biotinylated mouse anti-HM 1.24 antibody
[7] = target: HM 1.24 antigen polypeptide (human) (UniProt Q10589); experiment: flow cytometry on KPMM2 cells, purified antibody
[8] = target: HM 1.24 antigen polypeptide (human) (UniProt Q10589); experiment: expression cloning: panning of cDNA-transfected COS-7 cells on dishes coated with the antibody
[9] = target: HM 1.24 antigen polypeptide (human) (UniProt Q10589); experiment: antigen binding activity, Cell-ELISA on fixed WISH cells
[10] = target: HM 1.24 antigen polypeptide (human) (UniProt Q10589); experiment: binding inhibition activity, competition Cell-ELISA on fixed WISH cells; competitor biotinylated mouse anti-HM 1.24 antibody
[11] = target: HM 1.24 antigen polypeptide (human) (UniProt Q10589); experiment: Cell-ELISA on fixed WISH cells, CHO-produced purified antibody, direct binding and competition with biotinylated mouse anti-HM 1.24 antibody

Measured: binding

B1: chimeric anti-HM 1.24 antibody (antibody, V domains shown)
VH: QVQLQQSGAELARPGASVKLSCKASGYTFTPYWMQWVKQRPGQGLEWIGSIFPGDGDTRYSQKFKGKATLTADKSSSTAYMQLSILAFEDSAVYYCARGLRRGGYYFDYWGQGTTLTVSS
VL: DIVMTQSHKFMSTSVGDRVSITCKASQDVNTAVAWYQQKPGQSPKLLIYSASNRYTGVPDRITGSGSGTDFTFTISSVQAEDLALYYCQQHYSTPFTFGSGTKLEIK
binds: [1] | [2] | [3] | [4] | [5] | [6]

B2: human mouse hybrid anti-HM 1.24 antibody (antibody, V domains shown)
VH: B1 VH with Q5V, L11V, A12K, R13K, L20V, K38R, R40A, I48M
VL: DIQMTQSPSSLSASVGDRVTITCKASQDVNTAVAWYQQKPGKAPKLLIYSASNRYTGVPSRFSGSGSGTDFTFTISSLQPEDIATYYCQQHYSTPFTFGQGTKVEIK
binds: [4]

B3: mouse anti-HM 1.24 monoclonal antibody (antibody, V domains shown)
VH: B1 VH
VL: B1 VL
binds: [1] | [7] | [8] | [5]

B4: anti-HM 1.24 antibody comprising version a of the humanized L chain and the chimeric H chain (antibody, V domains shown)
VH: B1 VH
VL: B2 VL
binds: [2] | [4]

B5: reshaped human anti-HM 1.24 antibody, L chain version a / H chain version i (antibody, V domains shown)
VH: QVQLVQSGAEVKKPGASVKVSCKASGYTFTPYWMQWVRQAPGQGLEWMGSIFPGDGDTRYSQKFKGKVTMTADTSSSTAYMELSSLAFEDTAVYYCARGLRRGGYYFDYWGQGTTVTVSS
VL: B2 VL
binds: [9] | [6] | [10]

B6: reshaped human anti-HM 1.24 antibody, L chain version a / H chain version s (antibody, V domains shown)
VH: B5 VH with K67R, M70I, T74K, S76T, A87R, F88S
VL: B2 VL
binds: [2] | [5] | [6]

B7: reshaped human anti-HM 1.24 antibody, L chain version a / H chain version j (antibody, V domains shown)
VH: B5 VH with V68A, M70L, A87R, F88S
VL: B2 VL
binds: [9] | [6] | [10]

B8: reshaped human anti-HM 1.24 antibody, L chain version a / H chain version o (antibody, V domains shown)
VH: B5 VH with A87R, F88S, T91S
VL: B2 VL
binds: [9] | [6] | [10]

B9: reshaped human anti-HM 1.24 antibody, L chain version a / H chain version p (antibody, V domains shown)
VH: B5 VH with K67R, S76T, A87R, F88S
VL: B2 VL
binds: [9] | [6] | [10]

B10: reshaped human anti-HM 1.24 antibody, L chain version a / H chain version l (antibody, V domains shown)
VH: B5 VH with E82Q, S85I, A87R, F88S
VL: B2 VL
binds: [9] | [6] | [10]

B11: reshaped human anti-HM 1.24 antibody, L chain version a / H chain version n (antibody, V domains shown)
VH: B5 VH with S85I, A87R, F88S
VL: B2 VL
binds: [9] | [6] | [10]

B12: reshaped human anti-HM 1.24 antibody, L chain version a / H chain version m (antibody, V domains shown)
VH: B5 VH with E82Q, S85I, A87R, F88S, T91S
VL: B2 VL
binds: [9] | [6] | [10]

B13: reshaped human anti-HM 1.24 antibody, L chain version a / H chain version k (antibody, V domains shown)
VH: B5 VH with E82Q, A87R, F88S
VL: B2 VL
binds: [9] | [6] | [10]

B14: reshaped human anti-HM 1.24 antibody, L chain version a / H chain version r (antibody, V domains shown)
VH: B5 VH with K67R, T74K, S76T, A87R, F88S
VL: B2 VL
binds: [2] | [9] | [5] | [6] | [10] | [11]
